# Measured values published in PubChem BioAssay AID445 (National Center for Advancing Translational Sciences (NCATS), 2006).
# This is one part of the list. These are further read-outs of the screen, such as a control signal, another cell line or another target. No call is given for them. Most of these compounds were active or inconclusive in the main read-out, so they are no random draw. The note in brackets gives the kind of curve behind each potency; many fits are weak.
# Assay: IkB Signaling
# Conditions: ABC-DLBCL IkBa-CBG/CBR dual luciferase ratio (green luciferase fused to IkBa over red control in OCI-Ly3 lymphoma cells), 4 h
# Summary of the method: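 Curves were fitted separately to fusion (green), unfused (red) and ratio luminescence, then classed by r2, magnitude and activity. Cells: OCI-Ly3, 4 h compound plus doxycycline at 37C; 10 uM MG-132 defined full response.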
# [1] = measured here: control luc red channel unless noted
smiles,measurement,setting,value
Cc1noc2ncnc(N3CCCC(C(=O)NCCC(C)C)C3)c12 (configuration not stated),AC50,[1],"15.8 µM [falling, partial curve]"
Cc1ccc(S(=O)(=O)c2c(Nc3ccccc3)sc(C(=O)c3ccc4c(c3)OCO4)c2N)cc1,AC50,[1],"3.98 µM [falling, full curve, poor fit]"
CCCCN(CCCC)C(=O)c1cc2c(=O)n3ccccc3nc2s1,AC50,[1],"39.8 µM [falling, single point]"
Cc1cccc(N2CCN(S(=O)(=O)c3ccc(F)c(C(=O)Nc4cccc(Cl)c4C)c3)CC2C)c1 (configuration not stated),AC50,[1],"39.8 µM [falling, partial curve, poor fit]"
O=S(=O)(Nc1ccc(-c2ccc(N3CCCCCC3)nn2)cc1)c1ccc(C(F)(F)F)cc1,AC50,[1],"7.94 µM [falling, partial curve]"
COc1ccc(Nc2ncnc3c2cnn3C)c(OC)c1,AC50,[1],"12.6 µM [rising, partial curve]"
O=C(NCCSc1c(-c2ccc(Cl)cc2)[nH]c2ccccc12)c1ccc(S(=O)(=O)N2CCOCC2)cc1,AC50,[1],"2.51 µM [falling, full curve]"
CCN(CCNC(=O)C1CCCN(Cc2nc(-c3ccc(OC)cc3)oc2C)C1)c1ccccc1 (configuration not stated),AC50,[1],"15.8 µM [falling, partial curve]"
Cc1ccc(-n2nc3c(=O)n(CCCC(=O)NCc4ccc(F)cc4)nc(C)c3c2C)cc1,AC50,[1],"12.6 µM [falling, partial curve]"
Cc1cc(C(F)(F)F)c2c(N)c(C(=O)Nc3c(Cl)cccc3Cl)sc2n1,AC50,[1],"39.8 µM [falling, single point]"
CCn1c(N2CCC(Cc3ccccc3)CC2)nc2c1c(=O)[nH]c(=O)n2C,AC50,[1],"31.6 µM [falling, partial curve]"
Cc1ccc2c(c1)-c1onc(C(=O)N3CCN(c4cccc(C)c4C)CC3)c1CO2,AC50,[1],"1.58 µM [rising, full curve]"
CC(C)c1ccc(NC(=O)c2cc3c(=O)oc4ccccc4c3s2)cc1,AC50,[1],"0.2 µM [rising, full curve, poor fit]"
CCCC12CN3CC(C)(CN(C1)C3c1ccc(CC)cc1)C2=O (configuration not stated),AC50,[1],"20 µM [falling, single point]"
CCOC(=O)c1ccc2ncc(C(=O)OCC)c(NCCc3ccc(OC)c(OC)c3)c2c1,AC50,[1],"25.1 µM [falling, partial curve]"
CCN1CCN(C(=O)Cn2ncc3c4ccccc4n(Cc4ccccc4F)c3c2=O)CC1,AC50,[1],"25.1 µM [falling, single point]"
Cc1cccc(N2CCN(C(c3ccc(F)cc3)c3nnc(-c4ccccc4)o3)CC2)c1C (configuration not stated),AC50,[1],"10 µM [falling, partial curve]"
COc1ccc(N2CCN(C(CNC(=O)C(=O)NCc3ccc(C)cc3)c3cccnc3)CC2)cc1 (configuration not stated),AC50,[1],"31.6 µM [falling, single point]"
CC(C)Oc1ccc(CNC(=O)C2CCN(C(=O)N3CCOc4ccc(Cl)cc43)CC2)cc1,AC50,[1],"15.8 µM [falling, single point]"
Cn1c(=O)n(CCCOc2ccc(Cl)cc2)c2ccccc21,AC50,[1],"15.8 µM [falling, single point]"
O=C(Cn1c(=O)n(-c2ccc(Cl)cc2)c(=O)c2sc3ccccc3c21)NC1CCCCC1,AC50,[1],"15.8 µM [falling, partial curve]"
COc1cccc(NC(=O)C(=O)NCC(c2ccc3c(c2)OCO3)N2CCOCC2)c1 (configuration not stated),AC50,[1],"0.0316 µM [falling, full curve]"
COc1ccc(-c2cc(C(F)(F)F)nc(NCc3ccccc3)n2)cc1,AC50,[1],"0.316 µM [falling, partial curve]"
Fc1ccc(C(Nc2ccc(Cl)c(C(F)(F)F)c2)c2nnc(-c3ccccc3)o2)cc1 (configuration not stated),AC50,[1],"20 µM [falling, single point]"
O=C(c1cc(-c2ccco2)on1)N1CCN(c2ccccc2)CC1,AC50,[1],"5.01 µM [falling, partial curve]"
O=C(Nc1ccc(Br)cc1)c1ccc(Br)c(S(=O)(=O)N2CCCCC2)c1,AC50,[1],"10 µM [falling, partial curve]"
Cc1cn2c(=O)cc(COC(=O)c3cccc(NC(=O)COc4ccc(Cl)cc4)c3)nc2s1,AC50,[1],"2 µM [falling, full curve]"
Cc1ccc(C(=O)c2cn(Cc3ccccc3F)c3cc4c(cc3c2=O)OCO4)cc1,AC50,[1],"39.8 µM [falling, single point]"
CCc1ccccc1N(C)S(=O)(=O)c1ccc2[nH]cc(C(=O)NCCOC)c(=O)c2c1,AC50,[1],"31.6 µM [falling, single point]"
Cc1csc2nc(CCNS(=O)(=O)c3ccccc3)cn12,AC50,[1],"39.8 µM [rising, single point]"
CN(C)c1ccc(C(CNC(=O)c2ccccc2F)N2CCc3ccccc32)cc1 (configuration not stated),AC50,[1],"10 µM [falling, partial curve]"
Cc1nn(-c2ccccc2)c2c1N(CCCC(=O)NCc1ccc(Cl)cc1)C(=O)CS2,AC50,[1],"1.26 µM [falling, full curve, poor fit]"
O=C(NCc1ccco1)c1c[nH]c2ccc(S(=O)(=O)Nc3ccc(F)cc3F)cc2c1=O,AC50,[1],"25.1 µM [falling, single point]"
CN1CCN(C(=O)c2cnn(-c3cccc(Cl)c3)c2C2CCN(C(=O)OC(C)(C)C)CC2)CC1,AC50,[1],"39.8 µM [falling, single point]"
Cc1ccc(CN(Cc2ccco2)C(=O)COc2ccc(Cl)cc2Cl)cc1,AC50,[1],"15.8 µM [falling, partial curve]"
CC(C)(C)c1ccc(S(=O)(=O)c2cnc(SCC(=O)Nc3ccc(F)c(Cl)c3)[nH]c2=O)cc1,AC50,[1],"10 µM [falling, partial curve]"
CCOc1ccc(NC(=O)Cc2ccc(NC(=O)N3CCCCc4ccccc43)cc2)cc1,AC50,[1],"25.1 µM [falling, single point]"
COC(=O)c1ccc([C@H]2Nc3ccc(S(=O)(=O)Nc4ccc(C)cc4)cc3[C@H]3C=CC[C@H]32)cc1,AC50,[1],"25.1 µM [falling, partial curve]"
COc1ccc2ccccc2c1C1CC(=O)N2CN(C3CCCCC3)CSC2=C1C#N (configuration not stated),AC50,[1],"7.94 µM [falling, partial curve]"
COc1cc(-c2noc(-c3ccc(N4CCOCC4)c([N+](=O)[O-])c3)n2)cc(OC)c1OC,AC50,[1],"25.1 µM [falling, single point]"
Cc1ccc(NC(=O)CSc2nc3ccccc3c3nc(CCn4cncc4C)nn23)c(C)c1,AC50,[1],"0.251 µM [rising, full curve]"
Cc1ccc(OCC(=O)N(Cc2ccco2)Cc2ccco2)cc1,AC50,[1],"31.6 µM [falling, single point]"
Cc1ccc2cccc(S(=O)(=O)Nc3ccc4c(c3)OCO4)c2n1,AC50,[1],"25.1 µM [falling, partial curve]"
CCOc1ccc(CCNC(=O)Cc2ccc(NC(=O)N3CCSc4ncccc43)cc2)cc1,AC50,[1],"39.8 µM [falling, single point]"
COc1ccc(-n2nc(C(=O)N3CCN(c4cccc(C(F)(F)F)c4)CC3)c3c4ccccc4n(C)c3c2=O)cc1Cl,AC50,[1],"2.51 µM [rising, partial curve]"
COc1ccc(-c2n[nH]c(C)c2-c2ccc(Cl)cc2)c(O)c1OC,AC50,[1],"10 µM [falling, partial curve]"
COc1cc(OC)cc(C(=O)Nc2nc(-c3nnn(-c4ccc(F)c(Cl)c4)c3C)ns2)c1,AC50,[1],"39.8 µM [rising, single point]"
O=C(CSc1nc(O)c(C/C=C/c2ccccc2)c(=O)[nH]1)Nc1cccc(F)c1,AC50,[1],"7.94 µM [falling, partial curve]"
COc1ccc(-c2csc3c2[N+]2=CCC=C2C3=O)cc1,AC50,measured here: IkB-luc green channel,"3.98 µM [rising, partial curve]"
same,AC50,measured here: control luc red channel,"1.58 µM [rising, partial curve]"
CCCCSc1nnc(-c2ccc(C)cc2)o1,AC50,[1],"15.8 µM [falling, partial curve]"
CN(C(=O)c1oc(=O)c2ccccc2c1-c1ccccc1)c1cccc(Cl)c1,AC50,[1],"12.6 µM [falling, partial curve]"
CCCn1c(=O)c2sccc2n2c(CCCC(=O)Nc3ccccc3F)nnc12,AC50,[1],"39.8 µM [falling, single point]"
Cc1ccc(N2CCN(C(=O)c3c(C)oc4nc(C)nc(N5CCCC5)c34)CC2)c(C)c1,AC50,[1],"25.1 µM [falling, single point]"
COc1cccc(NS(=O)(=O)c2ccc(Br)s2)c1,AC50,[1],"7.94 µM [falling, partial curve]"
CCCCCCC(=O)N1CCC(c2nc3c(nnn3Cc3ccccc3Cl)c(=O)[nH]2)CC1,AC50,[1],"31.6 µM [falling, single point]"
Cc1cccc(-n2ncc(C(=O)NCc3ccco3)c2C2CCN(C(=O)OC(C)(C)C)CC2)c1,AC50,[1],"25.1 µM [falling, partial curve]"
Cc1nc2cccnc2n1C1CCN(S(=O)(=O)c2ccc(C(C)C)cc2)CC1,AC50,[1],"15.8 µM [falling, partial curve]"
CCOc1ccc2[nH]c(=O)c(CN(Cc3cccs3)Cc3nnnn3C(C)(C)C)cc2c1,AC50,[1],"31.6 µM [falling, single point]"
O=C(CSc1nc(-c2ccco2)nc2cc(=O)[nH]n12)Nc1ccccc1F,AC50,[1],"15.8 µM [falling, single point]"
Cc1cccc(N2CCN(C(=O)C3CCN(S(=O)(=O)c4cccc5nsnc45)CC3)CC2C)c1 (configuration not stated),AC50,[1],"7.94 µM [falling, partial curve]"
COc1ccc(NC(=O)CSc2nc(C)cc(C)c2C(=O)Nc2cccc(C)c2)cc1,AC50,[1],"31.6 µM [falling, single point]"

# 2 entries from above, as tab-separated lines.
smiles	measurement	setting	value
COc1cccc(NS(=O)(=O)c2ccc(Br)s2)c1	AC50	[1]	7.94 µM [falling, partial curve]
CCCCCCC(=O)N1CCC(c2nc3c(nnn3Cc3ccccc3Cl)c(=O)[nH]2)CC1	AC50	[1]	31.6 µM [falling, single point]

# Quoted at random: 2 entries already listed, in no set order.
smiles,measurement,setting,value
O=C(Cn1c(=O)n(-c2ccc(Cl)cc2)c(=O)c2sc3ccccc3c21)NC1CCCCC1,AC50,[1],"15.8 µM [falling, partial curve]"
Cc1csc2nc(CCNS(=O)(=O)c3ccccc3)cn12,AC50,[1],"39.8 µM [rising, single point]"
